Publication PMC6755085, “Cyclic oligoadenylate signalling mediates Mycobacterium tuberculosis CRISPR defence” (Nucleic Acids Research, 2019)
No constants are given. Whether binding was seen depends on the method and setting. In cells and extracts the contact can be indirect. Some results given as binding are weak or reduced against the parent protein; the word gives no strength.

Protein sequences, listed by entry. Tags and fused reporters are not part of them.
UniProt P9WJF6, whole entry: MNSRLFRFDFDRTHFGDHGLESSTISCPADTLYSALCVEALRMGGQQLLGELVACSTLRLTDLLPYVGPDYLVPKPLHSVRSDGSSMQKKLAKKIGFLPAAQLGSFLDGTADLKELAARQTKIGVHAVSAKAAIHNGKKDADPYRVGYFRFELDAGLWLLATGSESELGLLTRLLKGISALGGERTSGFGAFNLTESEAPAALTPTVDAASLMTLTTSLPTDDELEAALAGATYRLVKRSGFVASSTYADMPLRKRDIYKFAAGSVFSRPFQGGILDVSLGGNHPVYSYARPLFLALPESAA
UniProt P9WJF4, whole entry: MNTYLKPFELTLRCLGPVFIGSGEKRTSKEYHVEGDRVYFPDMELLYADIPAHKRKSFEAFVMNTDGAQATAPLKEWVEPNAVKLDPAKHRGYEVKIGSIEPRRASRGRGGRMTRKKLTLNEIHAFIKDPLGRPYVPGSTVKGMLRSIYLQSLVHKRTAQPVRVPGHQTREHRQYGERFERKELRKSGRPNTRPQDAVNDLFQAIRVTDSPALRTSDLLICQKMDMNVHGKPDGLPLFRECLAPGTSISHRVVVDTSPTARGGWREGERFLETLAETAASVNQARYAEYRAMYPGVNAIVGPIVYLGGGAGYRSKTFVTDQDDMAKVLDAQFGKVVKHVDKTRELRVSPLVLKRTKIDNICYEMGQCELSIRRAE

Target: Mycobacterium tuberculosis Csm4 (Cas5), His8-V5-tagged (Mycobacterium tuberculosis) (UniProt P9WJF6)
Test: pull-down

Mycobacterium tuberculosis Csm5 (from UniProt P9WJF4 1-375)
binding: binds
